Drawing on publication PMC6736568, “Discovery of Novel Anti-cryptosporidial Activities From Natural Products by in vitro High-Throughput Phenotypic Screening” (Frontiers in Microbiology, 2019), this text covers SI for 16 molecules.

For the series, the system named is HCT-8 cells. The series can be described thus: In vitro cytotoxicity MTS assay on host cells. In kind it is cell-based, human. The method, then: The plates were measured for absorbance at 490 nm in 15 min intervals in a SmartReader 96 microplate reader (Accuris, Edison, NJ, United States). Cytotoxicity of a compound was quantified by calculating the half maximal toxic concentration on host cells (TC50). An in vitro safety interval (SI) was calculated by determining the ratio between TC50 and EC50 values (i.e., SI = TC50/EC50).

[1] abbreviates: in vitro safety interval, SI = TC50/EC50.

Each structure is given as a SMILES string. Like-named read-outs stand apart in the source and are kept apart here. *1 amine or outer side, *2 acyl side, *3 side chain or, on linkers, in order; H or OH if unused. Where a SMILES comes first, the peptide text is derived from it. Bridges are numbered along the chain shown (N, C = ends). Roman numbers before positions name the chains, in order. [ ]: non-standard residue; d: D form. Actinocin(9to1) = Cc1c2oc3c(C)ccc(C(=O)[*:1])c3nc-2c(C(=O)[*:2])c(N)c1=O; NMeV = CN[C@H](C(=O)O)C(C)C; Sar = CNCC(=O)O

As to `COc1ccc(C(=O)c2ccc(O)cc2)c(O)c1O` [2,3,4′-Trihydroxy-4-methoxybenzophenone], the SI by setting is: under setting [1], above 27.1; (in vitro safety interval, SI = TC50/EC50, listed as 2,3,4'-Trihydroxy-4- methoxybenzophenone) above 27.1.

Turning to `COC(=O)C[C@H]1C(C)(C)[C@@H](O)[C@@H]2CC3=C4C=C(OC)O[C@@H](c5ccoc5)[C@]4(C)CCC3[C@@]1(C)C2=O` (stereo partly drawn) [3-Deoxo-3beta-hydroxy-mexicanolide 16-enol ether], the SI under setting [1] was above 25.4 and the SI (in vitro safety interval, SI = TC50/EC50, listed as 3-Deoxo-3beta-hydroxy- mexicanolide 16-enol ether) is given as above 25.4. For `O=c1cc(-c2ccccc2)oc2cc(O)c(O)c(O)c12` [Baicalein], under setting [1], the SI was above 102. Same read-out and setting: the value for `CC1(C)C(=O)C=C[C@@]2(C)C1=C(O)C(=O)[C@]1(C)[C@@H]2CC[C@@]2(C)[C@H](c3ccoc3)C[C@H]3O[C@]321` [Cedrelone] was 13.4; that for `Cc1c2oc3c(C)ccc(C(=O)N[C@@H]4C(=O)N[C@H](C(C)C)C(=O)N5CCC[C@H]5C(=O)N(C)CC(=O)N(C)[C@@H](C(C)C)C(=O)O[C@@H]4C)c3nc-2c(C(=O)N[C@@H]2C(=O)N[C@H](C(C)C)C(=O)N3CCC[C@H]3C(=O)N(C)CC(=O)N(C)[C@@H](C(C)C)C(=O)O[C@@H]2C)c(N)c1=O` [Dactinomycin, reference compound] (I: T[dV]P[Sar][NMeV] / II: T[dV]P[Sar][NMeV]; ester I:1-I:C, II:1-II:C; linker I:N-II:N via Actinocin(9to1)) was 9.10. In turn, `COc1cccc2c1C(=O)c1c(O)c3c(c(O)c1C2=O)C[C@@](O)(C(C)=O)C[C@@H]3O[C@H]1C[C@H](N)[C@H](O)[C@H](C)O1` [Daunorubicin, reference compound] displayed an SI of 28.5. As to `CC1(C)C(=O)C=C[C@]2(C)[C@H]3CC[C@@]4(C)[C@H](c5ccoc5)OC(=O)[C@H]5O[C@]54[C@]3(C)C(=O)C[C@@H]12` [Deacetoxy-7-oxogedunin], under setting [1], the SI amounted to 6.59. The same measure, in the same setting: next, `CC1(C)C(=O)C=C[C@]2(C)[C@H]3CC[C@@]4(C)[C@H](c5ccoc5)OC(=O)[C@H]5O[C@]54[C@]3(C)[C@H](O)C[C@@H]12` [Deacetylgedunin]: 17.4. Take `COc1ccc2c(c1)OCC(Cc1ccc(OC)c(OC(C)=O)c1)C2=O` (stereo not shown) [Deoxysappanone B 7,3′-dimethyl ether acetate]: the SI runs as follows: under setting [1], above 84; (in vitro safety interval, SI = TC50/EC50, listed as Deoxysappanone B 7,3'- dimethyl ether acetate (Deox B 7,3)) above 84. In turn, `COc1ccc2c(c1)OC[C@H](Cc1ccc(OC)c(O)c1)C2=O` [Deoxysappanone B 7,4′-dimethyl ether] gave an SI under setting [1] of 88.9. The molecule `CC(C)=CCCC1(C)C=Cc2c(O)c3c(c(CC=C(C)C)c2O1)OC12C(=CC4CC1C(C)(C)OC2(C/C=C(/C)C(=O)O)C4O)C3=O` (stereo not shown) [Dihydrogambogic acid] yielded an SI under setting [1] of 3.78. On the same count and under the same terms, next, `Cc1cccc2c3c(ccc12)C1=C(C(=O)C3=O)[C@@H](C)CO1` [Dihydrotanshinone I]: 8.11. Same read-out and setting: the value for `CC[C@H](C)C(=O)O[C@H]1C[C@@H](C)C=C2C=C[C@H](C)[C@H](CC[C@@H]3C[C@@H](O)CC(=O)O3)[C@H]21` [Lovastatin, reference compound] was above 41.6. Molecule `CO[C@@]12[C@H](COC(N)=O)C3=C(C(=O)C(C)=C(N)C3=O)N1C[C@@H]1N[C@@H]12` [Mitomycin, reference compound] registered an SI under setting [1] of 98.7.

Take `Cc1coc2c1C(=O)C(=O)c1c-2ccc2c1CCCC2(C)C` [Tanshinone IIA]: the SI under setting [1] was above 104. Still for that read-out and setting: next, `CC(C)[C@@H]1NC(=O)[C@H](C)OC(=O)[C@@H](C(C)C)NC(=O)[C@@H](C(C)C)OC(=O)[C@H](C(C)C)NC(=O)[C@H](C)OC(=O)[C@@H](C(C)C)NC(=O)[C@@H](C(C)C)OC(=O)[C@H](C(C)C)NC(=O)[C@H](C)OC(=O)[C@@H](C(C)C)NC(=O)[C@@H](C(C)C)OC1=O` [Valinomycin, reference compound]: above 410.
